## Percent effect of library compounds

Source: ChEMBL document CHEMBL3988442, “University of Dundee, Small-Polar-MMV Screening Library” (2021).

Each number is a percent effect as filed. The record does not define 0% and 100%; most values in the screen are far below 50% and negative numbers occur (in some assays of this library far below -100). This is an unselected part of the compounds tested.

A: 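Growth of Mycobacterium tuberculosis over 3 days (7H9 medium with glucose and tyloxapol); the read-out is not stated. Concentration: 500 µM. Direction is inferred from retests: higher values go with more growth inhibition. About 18,000 compounds were tested under these conditions; 7.9% (about 1,400) showed 50% or more at least once.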
B: 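Whole-cell growth test on Mycobacterium tuberculosis, read after 4 days in a medium based on cholesterol and the lipid DPPC; the read-out is not stated. Tested at 500 µM. Higher reads as more growth inhibition (inferred: compounds with an IC50 in retests scored well above the rest). Of about 18,000 compounds tested this way, about 900 (5%) reached 50% or more in at least one test.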

compound,A,B
CC(CN1CCOCC1)OC(=O)c1ccccc1F (stereo not given),2.528%,33.13%
Cc1ccc(S(=O)(=O)NCCOC(N)=O)c(Br)c1,27.95%,5.755%
Cc1cc(C(=O)Nc2cccc(C[S+](C)[O-])c2)on1 (stereo not given),7.95%,-10.22%
FC(F)(F)c1cccnc1NCC1CCCO1 (stereo not given),7.642%,1.804%
Cc1cc(F)cc(S(=O)(=O)NCCN)c1,22.94%,12.45%
COc1ccccc1CC(=O)N(C)C1CCS(=O)(=O)C1 (stereo not given),14.83%,25.16%
O=C(NCCn1ccnc1)Nc1cc(F)ccc1F,13.39%,6.17%
Cc1ccc(NC(=O)N[C@@H]2CNCC[C@H]2O)cc1,17.84%,-4.871%
CS(=O)(=O)NCCNc1nc2ccccc2s1,24.5%,-9.529%
COc1ccc2nc(CCN)[nH]c2c1,13.23%,3.9%
Cc1cc(Br)ccc1C(=O)N1CCNCC1,6.043%,-12.36%
CCN1CCCN(CC(=O)NCC2CCCO2)CC1 (stereo not given),9.749%,-1.211%
O=C(Cn1cccn1)N1CCCC1c1ccsc1 (stereo not given),4.641%,2.84%
O=C(NCCNC(=O)c1ccccc1)C1=CCC1,39.5%,8.122%
Cc1noc(C)c1S(=O)(=O)NCCC1CCCO1 (stereo not given),5.852%,-0.4551%
CCCC1CN(C)CCC1=O (stereo not given),0.1052%,-5.303%
COc1ccc(CCC(=O)NC2CC2)cc1OC,-2.272%,-15.23%
CN(C)C(=O)N1CCCC(C(=O)Nc2ccccn2)C1 (stereo not given),30.31%,-2.067%
O=C(Cc1cccnc1)NCCNc1cccc(Br)c1,61%,33.52%
O=C(NCCc1cn2ccsc2n1)C1CCCO1 (stereo not given),23.02%,3.787%
CN(C)C(=O)CSc1ncccc1C#N,-0.3094%,-6.279%
Cn1cc(Br)cc(NC(=O)COc2ccccc2)c1=O,1.682%,-6.01%
CCOC(CNC(=O)c1ccnn1C)c1ccccc1 (stereo not given),-3.312%,-5.67%
COC(=O)c1cc(C#N)ccc1F,1.33%,-9.915%
Cc1cc(C(=O)NCCCNCc2cccnc2)no1,-4.333%,-24.1%
Cc1ccc(NC(=O)NC(C)CS(C)(=O)=O)cc1 (stereo not given),13.85%,-6.415%
OC1(CNCc2nnc3ccccn23)CNCCOC1 (stereo not given),-20.56%,-12.7%
O=C1COc2cc(Br)cnc2N1,-4.894%,-4.899%
CC(C(=O)NC1CCCC1)N1CCC2(CC1)OCCO2 (stereo not given),10.32%,18.48%
Cc1ccc(-n2nnnc2NC2CC2)cc1,51.88%,26.06%
CC(NC(=O)CCc1ccccn1)C(=O)NC(C)(C)C (stereo not given),2.662%,3.384%
O=C1CC(OC(=O)c2cccc(F)c2)CN1 (stereo not given),12.02%,1.752%
c1ccc(CNC2CCNC2)cc1 (stereo not given),4.046%,-7.049%
Cc1cc(N2CCCC(N)C2)ncn1 (stereo not given),10.73%,-2.332%
CS(=O)(=O)NC1CCNC1 (stereo not given),6.687%,-2.541%
CC(CS(C)(=O)=O)NC1CC1 (stereo not given),3.221%,6.984%
CSC(C)(C)CNC(=O)NCCC1CCCO1 (stereo not given),17.11%,1.319%
c1ccc(-c2n[nH]c(C3CCNCC3)n2)cc1,17.6%,9.194%
CCCNC(=O)C[S+]([O-])Cc1cccc(Cl)c1 (stereo not given),44.45%,25.83%
Cn1nccc1CCC(=O)NCC1(O)CCCCC1,9.712%,8.408%
NCc1cnc(-c2ccccc2)nc1,21.89%,12.02%
Nc1ccc(C(=O)N2CCOCC2)cn1,8.603%,5.147%
CCC(C)NC(=O)N1CCCN(C2CC2)CC1 (stereo not given),-1.029%,9.383%
CN(C)c1ccc(N2CCNCC2)cc1,13.58%,-3.162%
O=S1(=O)CCNc2ccccc21,8.918%,7.972%
CSc1ncc(CNC(=O)[C@H]2CC[C@@H](N)C2)n1C,2.936%,0.04127%
CN(Cc1ccccc1OCCO)C1CCOCC1,3.274%,9.442%
OCCC1(O)CCOc2ccccc21 (stereo not given),-10.69%,-11.39%
Cc1nn(CC(C)C)c(C)c1N,16.92%,22.66%
CSC(C)(C)CNC(=O)Nc1cc(C)on1,42.74%,27.23%
CN(C)CCN(C)c1cc(C2CC(O)C2)ncn1 (stereo not given),5.63%,4.867%
CC(C)[C@@H](CO)NCc1ccc(S(=O)(=O)N(C)C)cc1,4.774%,-5.483%
Cc1ccnc(NC(=O)CNC(=O)c2ccc(Br)o2)c1,36.11%,17.99%
CCc1noc(CN2CCCC(O)C2)n1 (stereo not given),11.08%,-11.46%
C[C@@H](CO)NC(=O)NCC1CCN(CC(F)(F)F)CC1,10.19%,-9.995%
Cc1ccc(C(=O)Nc2ccon2)o1,18.92%,25.03%
Cc1nnc(CCNC(=O)C2CCN(C(C)C)CC2)s1,12.33%,32.05%
N[C@H]1C[C@@H](c2cc(NCCCN3CCCC3)ncn2)C1,-2.536%,-7.124%
CS(=O)(=O)NCCCNC(=O)c1cn2ccccc2n1,9.386%,-2.967%
CC(=O)c1c[nH]c(C(=O)NC2CCN(C(C)=O)CC2)c1,0.3815%,-10.4%
CCNCc1cccc2c1OCO2,-4.382%,-0.1745%
COCc1ccc(C(=O)N2CC[C@@H](N)[C@H](O)C2)s1,14.39%,4.939%
CNCC1(CO)CC1,3.002%,-1.302%
CC(NC(=O)c1ccc(Br)s1)C(=O)N(CCO)C1CC1 (stereo not given),24.7%,11.28%
CC(=O)Nc1ccc(S(=O)(=O)N2CCC(N)CC2)cc1,6.253%,-3.995%
NC(=O)c1ccc(S(N)(=O)=O)cc1,39.3%,17.19%

Repeated from the top, 7 entries:

- CC(CN1CCOCC1)OC(=O)c1ccccc1F (stereo not given) : A: 2.528%; B: 33.13%
- Cc1ccc(S(=O)(=O)NCCOC(N)=O)c(Br)c1 : A: 27.95%; B: 5.755%
- Cc1cc(C(=O)Nc2cccc(C[S+](C)[O-])c2)on1 (stereo not given) : A: 7.95%; B: -10.22%
- FC(F)(F)c1cccnc1NCC1CCCO1 (stereo not given) : A: 7.642%; B: 1.804%
- Cc1cc(F)cc(S(=O)(=O)NCCN)c1 : A: 22.94%; B: 12.45%
- COc1ccccc1CC(=O)N(C)C1CCS(=O)(=O)C1 (stereo not given) : A: 14.83%; B: 25.16%
- O=C(NCCn1ccnc1)Nc1cc(F)ccc1F : A: 13.39%; B: 6.17%